For test [1], the target named is C-terminally myc-tagged Rom-1 (human) (UniProt Q03395). As to the kind of experiment: co-IP; membrane preparations of co-transfected HEK293T cells harvested 48 h post transfection; anti-myc antibody (9B11) on Protein G magnetic beads; citrine-tagged partner detected with anti-GFP.
Test [2] addresses T1, C-terminally myc-tagged per^WT (wild type peripherin-2) (human) (UniProt P23942).
T1 sequence: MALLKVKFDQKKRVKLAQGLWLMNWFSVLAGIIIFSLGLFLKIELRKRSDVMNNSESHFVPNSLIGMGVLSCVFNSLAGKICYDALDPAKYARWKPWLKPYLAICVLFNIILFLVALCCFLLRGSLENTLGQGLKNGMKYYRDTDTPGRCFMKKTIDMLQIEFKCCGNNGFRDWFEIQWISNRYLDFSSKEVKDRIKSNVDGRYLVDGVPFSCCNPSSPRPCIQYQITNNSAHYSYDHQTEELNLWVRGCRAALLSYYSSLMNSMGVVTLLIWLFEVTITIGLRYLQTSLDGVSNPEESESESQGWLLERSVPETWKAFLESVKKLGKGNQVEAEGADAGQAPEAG
The test is described as above.

Amino acid sequences for entries named in this document (tags omitted).
UniProt Q03395: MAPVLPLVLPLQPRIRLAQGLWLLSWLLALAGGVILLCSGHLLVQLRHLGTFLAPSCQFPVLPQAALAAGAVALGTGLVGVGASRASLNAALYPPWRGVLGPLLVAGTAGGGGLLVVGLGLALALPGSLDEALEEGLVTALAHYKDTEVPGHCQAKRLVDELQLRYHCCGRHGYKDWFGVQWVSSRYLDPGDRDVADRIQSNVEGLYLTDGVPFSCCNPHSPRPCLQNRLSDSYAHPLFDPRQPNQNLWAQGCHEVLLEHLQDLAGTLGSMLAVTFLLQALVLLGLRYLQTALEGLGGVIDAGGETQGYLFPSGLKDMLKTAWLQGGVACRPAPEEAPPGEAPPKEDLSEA

For test [3], the target named is T1, C-terminally myc-tagged per^WT (wild type peripherin-2) (human). In words: co-IP; peptide competition assay: membrane preparations of HEK293T cells co-transfected with myc- and citrine-tagged per^WT, with 10 mM peptide or peptide-free, incubated with myc-antibody-coupled magnetic beads 30 min at room temperature.
Test [4] concerns the target C-terminally myc- or flag-tagged Rom-1 (SDGC construct) (human) (UniProt Q03395). As to the kind of experiment: sucrose density gradient centrifugation; lysate of transfected HEK293T cells (0.5% Triton X-100, 150 mM NaCl, 2 mM CaCl2) on a 5-20% sucrose gradient with 0.1% Triton X-100 and 10 mM N-ethylmaleimide, 46,700 rpm, 2 h, 4 °C; 11 fractions immunoblotted with myc- or flag-specific antibodies under non-reducing conditions; DNA standards for size. Background: Immunoblotting shows a protein as a band on a membrane.

Test [5] deals with T2, C-terminally myc- or flag-tagged per^WT (SDGC construct) (human) (UniProt P23942).
T2 sequence: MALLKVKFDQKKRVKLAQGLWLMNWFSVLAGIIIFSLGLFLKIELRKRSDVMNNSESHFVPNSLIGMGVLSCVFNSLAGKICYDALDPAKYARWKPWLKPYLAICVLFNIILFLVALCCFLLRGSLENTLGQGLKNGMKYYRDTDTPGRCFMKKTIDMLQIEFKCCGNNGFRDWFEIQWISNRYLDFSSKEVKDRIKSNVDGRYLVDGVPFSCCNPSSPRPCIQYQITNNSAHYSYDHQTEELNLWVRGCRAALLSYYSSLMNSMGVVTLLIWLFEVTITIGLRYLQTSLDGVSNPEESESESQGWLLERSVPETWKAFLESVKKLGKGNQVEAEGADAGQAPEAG
The description is as above.

Test [6] concerns the target T3, N-terminally cerulean-tagged per^WT expressed in mouse rods (human) (UniProt P23942).
T3 sequence: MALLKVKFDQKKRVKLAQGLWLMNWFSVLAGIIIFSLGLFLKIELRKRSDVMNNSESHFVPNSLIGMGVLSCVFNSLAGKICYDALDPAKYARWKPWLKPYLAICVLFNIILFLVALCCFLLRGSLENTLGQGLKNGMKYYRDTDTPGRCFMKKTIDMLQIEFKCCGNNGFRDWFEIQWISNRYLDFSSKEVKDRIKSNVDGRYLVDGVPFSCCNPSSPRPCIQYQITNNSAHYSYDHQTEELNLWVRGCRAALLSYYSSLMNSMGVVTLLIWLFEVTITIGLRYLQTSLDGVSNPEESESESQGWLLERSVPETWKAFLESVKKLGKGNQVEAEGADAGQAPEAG
In words: FRET or BRET; 3 cube FRET on single rod OS isolated four weeks after subretinal co-injection of rAAVs into wild type mice (six pooled retinas for each FRET pair); FRET imaging solution pH 7.4, RT. (In general: In BRET a luciferase serves as donor, and the signal depends on an acceptor being close.)

These are yes or no findings as the source states them, for the method shown. For part of these data: In cells and extracts the contact can be indirect. Some results given as binding are weak or reduced against the parent protein; the word gives no strength. Sequences can lack the tags named with a protein.

B1: N-terminally citrine-tagged per^P210L (peripherin-2 P210L) (protein, UniProt P23942 1-346)
chain: MALLKVKFDQKKRVKLAQGLWLMNWFSVLAGIIIFSLGLFLKIELRKRSDVMNNSESHFVPNSLIGMGVLSCVFNSLAGKICYDALDPAKYARWKPWLKPYLAICVLFNIILFLVALCCFLLRGSLENTLGQGLKNGMKYYRDTDTPGRCFMKKTIDMLQIEFKCCGNNGFRDWFEIQWISNRYLDFSSKEVKDRIKSNVDGRYLVDGVLFSCCNPSSPRPCIQYQITNNSAHYSYDHQTEELNLWVRGCRAALLSYYSSLMNSMGVVTLLIWLFEVTITIGLRYLQTSLDGVSNPEESESESQGWLLERSVPETWKAFLESVKKLGKGNQVEAEGADAGQAPEAG
B1: the binding result in test [1] and in test [2] was “binds” throughout.

B2: N-terminally citrine-tagged per^C214S (peripherin-2 C214S) (protein, UniProt P23942 1-346)
chain: MALLKVKFDQKKRVKLAQGLWLMNWFSVLAGIIIFSLGLFLKIELRKRSDVMNNSESHFVPNSLIGMGVLSCVFNSLAGKICYDALDPAKYARWKPWLKPYLAICVLFNIILFLVALCCFLLRGSLENTLGQGLKNGMKYYRDTDTPGRCFMKKTIDMLQIEFKCCGNNGFRDWFEIQWISNRYLDFSSKEVKDRIKSNVDGRYLVDGVPFSCSNPSSPRPCIQYQITNNSAHYSYDHQTEELNLWVRGCRAALLSYYSSLMNSMGVVTLLIWLFEVTITIGLRYLQTSLDGVSNPEESESESQGWLLERSVPETWKAFLESVKKLGKGNQVEAEGADAGQAPEAG
In the case of B2, the binding entry in test [1] and in test [2] was “binds” each time.

B3: N-terminally citrine-tagged per^WT (wild type peripherin-2) (protein, UniProt P23942 1-346)
chain: MALLKVKFDQKKRVKLAQGLWLMNWFSVLAGIIIFSLGLFLKIELRKRSDVMNNSESHFVPNSLIGMGVLSCVFNSLAGKICYDALDPAKYARWKPWLKPYLAICVLFNIILFLVALCCFLLRGSLENTLGQGLKNGMKYYRDTDTPGRCFMKKTIDMLQIEFKCCGNNGFRDWFEIQWISNRYLDFSSKEVKDRIKSNVDGRYLVDGVPFSCCNPSSPRPCIQYQITNNSAHYSYDHQTEELNLWVRGCRAALLSYYSSLMNSMGVVTLLIWLFEVTITIGLRYLQTSLDGVSNPEESESESQGWLLERSVPETWKAFLESVKKLGKGNQVEAEGADAGQAPEAG
As for B3, the binding entry in test [3] is “binds”.

B4: C-terminally myc- or flag-tagged per^P210L (SDGC construct) (protein, UniProt P23942 1-346)
chain: MALLKVKFDQKKRVKLAQGLWLMNWFSVLAGIIIFSLGLFLKIELRKRSDVMNNSESHFVPNSLIGMGVLSCVFNSLAGKICYDALDPAKYARWKPWLKPYLAICVLFNIILFLVALCCFLLRGSLENTLGQGLKNGMKYYRDTDTPGRCFMKKTIDMLQIEFKCCGNNGFRDWFEIQWISNRYLDFSSKEVKDRIKSNVDGRYLVDGVLFSCCNPSSPRPCIQYQITNNSAHYSYDHQTEELNLWVRGCRAALLSYYSSLMNSMGVVTLLIWLFEVTITIGLRYLQTSLDGVSNPEESESESQGWLLERSVPETWKAFLESVKKLGKGNQVEAEGADAGQAPEAG
Regarding B4, the binding entry in test [4] and in test [5] was “binds” each time.

B5: N-terminally citrine-tagged per^C214S expressed in mouse rods (protein, UniProt P23942 1-346)
chain: MALLKVKFDQKKRVKLAQGLWLMNWFSVLAGIIIFSLGLFLKIELRKRSDVMNNSESHFVPNSLIGMGVLSCVFNSLAGKICYDALDPAKYARWKPWLKPYLAICVLFNIILFLVALCCFLLRGSLENTLGQGLKNGMKYYRDTDTPGRCFMKKTIDMLQIEFKCCGNNGFRDWFEIQWISNRYLDFSSKEVKDRIKSNVDGRYLVDGVPFSCSNPSSPRPCIQYQITNNSAHYSYDHQTEELNLWVRGCRAALLSYYSSLMNSMGVVTLLIWLFEVTITIGLRYLQTSLDGVSNPEESESESQGWLLERSVPETWKAFLESVKKLGKGNQVEAEGADAGQAPEAG
In the case of B5, the binding entry in test [6] is on record as “binds”.

B6: N-terminally citrine-tagged per^P210L expressed in mouse rods (protein, UniProt P23942 1-346)
chain: MALLKVKFDQKKRVKLAQGLWLMNWFSVLAGIIIFSLGLFLKIELRKRSDVMNNSESHFVPNSLIGMGVLSCVFNSLAGKICYDALDPAKYARWKPWLKPYLAICVLFNIILFLVALCCFLLRGSLENTLGQGLKNGMKYYRDTDTPGRCFMKKTIDMLQIEFKCCGNNGFRDWFEIQWISNRYLDFSSKEVKDRIKSNVDGRYLVDGVLFSCCNPSSPRPCIQYQITNNSAHYSYDHQTEELNLWVRGCRAALLSYYSSLMNSMGVVTLLIWLFEVTITIGLRYLQTSLDGVSNPEESESESQGWLLERSVPETWKAFLESVKKLGKGNQVEAEGADAGQAPEAG
For the molecule B6, in test [6], the binding entry is given as “binds”.

B7: N-terminally citrine-tagged per^WT expressed in mouse rods (protein, UniProt P23942 1-346)
chain: MALLKVKFDQKKRVKLAQGLWLMNWFSVLAGIIIFSLGLFLKIELRKRSDVMNNSESHFVPNSLIGMGVLSCVFNSLAGKICYDALDPAKYARWKPWLKPYLAICVLFNIILFLVALCCFLLRGSLENTLGQGLKNGMKYYRDTDTPGRCFMKKTIDMLQIEFKCCGNNGFRDWFEIQWISNRYLDFSSKEVKDRIKSNVDGRYLVDGVPFSCCNPSSPRPCIQYQITNNSAHYSYDHQTEELNLWVRGCRAALLSYYSSLMNSMGVVTLLIWLFEVTITIGLRYLQTSLDGVSNPEESESESQGWLLERSVPETWKAFLESVKKLGKGNQVEAEGADAGQAPEAG
Turning to B7, in test [6], the binding entry is reported as “binds”.

B8: C-terminally myc- or flag-tagged per^C214S (SDGC construct) (natural protein, human, UniProt P23942 1-346, looked up)
chain: MALLKVKFDQKKRVKLAQGLWLMNWFSVLAGIIIFSLGLFLKIELRKRSDVMNNSESHFVPNSLIGMGVLSCVFNSLAGKICYDALDPAKYARWKPWLKPYLAICVLFNIILFLVALCCFLLRGSLENTLGQGLKNGMKYYRDTDTPGRCFMKKTIDMLQIEFKCCGNNGFRDWFEIQWISNRYLDFSSKEVKDRIKSNVDGRYLVDGVPFSCSNPSSPRPCIQYQITNNSAHYSYDHQTEELNLWVRGCRAALLSYYSSLMNSMGVVTLLIWLFEVTITIGLRYLQTSLDGVSNPEESESESQGWLLERSVPETWKAFLESVKKLGKGNQVEAEGADAGQAPEAG
notes: peripherin-2 (PRPH2), human, adRP-linked mutant C214S; also called per^C214S only; per^MT; source: HEK293T, transiently transfected, in lysate (0.5% Triton X-100)
As for B8, the binding result in test [4] and in test [5] was “binds” each time.

For the origin of these results see publication PMC5443838, “Peripherin-2 and Rom-1 have opposing effects on rod outer segment targeting of retinitis pigmentosa-linked peripherin-2 mutants” (Scientific Reports, 2017).
